Experimental findings from patent US6767887B1 (Roche Diagnostics GmbH, priority 1999, dated 2004) are described below.

Where no end group is shown, it is not given here.

A short description of the data set: general procedure: Fmoc solid-phase peptide synthesis; PAL-Ala-aminomethyl-polystyrene(1%)divinylbenzene (0.5 mmol/g) or TentaGel Rink-amide (0.18 mmol/g); DIC/HOBt or TBTU/HOBt with DIEA. To be noted: whole synthesis, scale of the general procedure 0.02 mmol or 0.0076 mmol.
Take [P^2, Nle^14, R^30]-Ex-3-(1-30)—NH2: the “final purity (method not given)” value was 96%. For [H^2 Nle^14R^30]-Ex-3-(1-30)—NH2, the “final purity (method not given)” value is recorded as over 99%.

In the case of [Nle^14, R^30]-Ex-3-(1-30)—NH2, the “final purity (method not given)” value is reported as 95%. With [D^2, Nle^14, R^30]-Ex-3-(1-30)—NH2, the “final purity (method not given)” value was 95%. Regarding [N^2Nle^14, R^30]-Ex-3-(1-30)—NH2, the “final purity (method not given)” value was over 99%.

With [T^2, Nle^14, R^30]-Ex-3-(1-30)—NH2, the “final purity (method not given)” value was over 99%.

As for Ac-[Nle^14, R^30]-Ex-3-(3-30)—NH2, the “final purity (method not given)” value stood at 99%. In the case of [F^2, Nle^14, R^30]-Ex-3-(1-30)—NH2, the “final purity (method not given)” value is on record as 98%. As for HSDGTFTSDLSKQ-Nle-EEEAVRLFIEWLENGR-H2, the “final purity (method not given)” value is “≧99%”. With [A^2, Nle^14, R^30]-Ex-3-(1-30)—NH2, the “final purity (method not given)” value is 95%.

For the substance [V^2, Nle^14, R^30]-Ex-3-(1-30)—NH2, the “final purity (method not given)” value was over 99%. With [R^2, Nle^14, R^30]-Ex-3-(1-30)—NH2, the “final purity (method not given)” value is given as over 99%. In the case of [Q^2, Nle^14, R^30]-Ex-3-(1-30)—NH2, the “final purity (method not given)” value was over 99%. In the case of [Nle^14, R^30]-Ex-3-(3-30)—NH2, the “final purity (method not given)” value was over 99%. Regarding [K^2, P^3, A^14, R^30]-Ex-3-(1-30)—NH2, the “final purity (method not given)” value is given as 99%. As to [Nle^14]-Ex-3-(1-27)—NH2, the “final purity (method not given)” value was found to be 99%. As to [A^14, R^30]-Ex-3-(1-30)—NH2, the “final purity (method not given)” value was 95%.

For [E^2, Nle^14, R^30]-Ex-3-(1-30)—NH2, the “final purity (method not given)” value is over 99%.

As for HSEGTFTSDLSKQAEEEAVRLFIEWLKNGR-NH2, the “final purity (method not given)” value is given as 99%. For [C^2, Nle^14, R^30]-Ex-3-(1-30)—NH2, the “final purity (method not given)” value is reported as 95%.

As for HSDGTFTSDLSKQNleEEEAVRLFIEWLKNGY—NH2, the “final purity (method not given)” value is on record as over 99%.

On to HADGTFTSDLSSYMEGQAVKEFIAWLVKGR-NH2, for which the “final purity (method not given)” value stood at 99%.

Consider [L^2, Nle^14, R^30]-Ex-3-(1-30)—NH2, for which the “final purity (method not given)” value is listed as over 99%. Turning to [K^2, Nle^14, R^30]-Ex-3-(1-30)—NH2, the “final purity (method not given)” value was found to be 95%. Take “HGEGTFTSDLSKQMEEEAVRAFIEWLKAGR-NH2 (C-terminal amide)”: the “final purity (method not given)” value is on record as “≧95%”.

Turning to HSDGTFTSDLSKQMEEEAVRLFIEWLKNGR-NH2, the “final purity (method not given)” value was determined as 99%. For [I^2, Nle^14, R^30]-Ex-3-(1-30)—NH2, the “final purity (method not given)” value was over 99%.

In the case of [G^2, Nle^14, R^30]-Ex-3-(1-30)—NH2, the “final purity (method not given)” value stood at 95%. With HGEGTFTSDLSKQMEEEAVRAFIEWLKNGR-NH2, the “final purity (method not given)” value is “≧95%”. The same measure for [Y^2, Nle^14, R^30]-Ex-3-(1-30)—NH2: 95%; for [Nla^14, R^30]-Ex-3-(2-30)—NH2: over 99%. For the substance [W^2, Nle^14, R^30]-Ex-3-(1-30)—NH2, the “final purity (method not given)” value was over 99%. The same measure for [Nle^14, R^30]-Ex-3-(1-30)—OH: 95%; for [M^2, Nle^14, R^30]-Ex-3-(1-30)—NH2: over 99%.
